According to PubChem BioAssay AID504847 (National Center for Advancing Translational Sciences (NCATS), 2011):
The whole screen tested about 400,000 compounds, of which about 3,700 (0.93%) were called active. Inconclusive means that the source gave no clear call. Such entries were picked first, then a sample of the others. The call rests on the fitted dose curve; in most records, active means well fitted inhibition curve with a large enough effect; inconclusive means small, poorly fitted or top-dose-only effect, or another doubt; inactive means no such curve, though single readings can be large or run the other way. Potencies of inconclusive entries are doubtful fits and often do not repeat.

The chains behind the UniProt entries cited, without tags or fusion partners. Where a name states a change or a piece, a line headed by the entry shows the natural chain unless it says otherwise.
UniProt P11473: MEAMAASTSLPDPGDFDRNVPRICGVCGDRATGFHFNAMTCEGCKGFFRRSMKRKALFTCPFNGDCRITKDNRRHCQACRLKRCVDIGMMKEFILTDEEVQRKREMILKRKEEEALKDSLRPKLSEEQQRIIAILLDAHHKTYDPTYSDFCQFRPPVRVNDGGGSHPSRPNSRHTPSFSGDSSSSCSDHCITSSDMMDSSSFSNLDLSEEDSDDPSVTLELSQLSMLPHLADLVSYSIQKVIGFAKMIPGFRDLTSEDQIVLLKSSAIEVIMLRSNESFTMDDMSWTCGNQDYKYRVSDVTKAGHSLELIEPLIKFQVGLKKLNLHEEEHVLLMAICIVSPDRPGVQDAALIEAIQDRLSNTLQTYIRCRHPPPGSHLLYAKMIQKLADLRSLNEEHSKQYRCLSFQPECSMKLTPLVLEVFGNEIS

biological target: Vitamin D3 receptor (Homo sapiens) (UniProt P11473); test: Inhibitors of the vitamin D receptor (VDR): qHTS; settings: VDR-SRC2-3 peptide fluorescence polarization, 2 h; max response, negative = inhibition: active compounds read low
Outline: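 After 23 nl compound addition and a short centrifugation, plates sat for 2 hours at ambient temperature; polarization of fluorescence then indicated loss of VDR binding to peptide SRC2-3.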
On the % scale 0 is the no-effect control and ±100 the full control effect; potency means the concentration at half of the fitted maximal effect.

How did the max response, negative = inhibition turn out when `COc1cccc(C2C(C(=O)c3cc4cccc(OC)c4o3)=C(O)C(=O)N2c2cc(C)on2)c1OC` (centres undefined) was run?
The max response, negative = inhibition was inactive: -12.9%.

With `CC(=O)N1CCN(c2ccc(NCc3ccc(-c4ccc(Br)cc4)o3)cc2)CC1` as the compound, how does the Potency read?
Its Potency is active: 79.4 µM.

How did the max response, negative = inhibition turn out when `N=C1S/C(=C\c2ccco2)C(=O)N1c1ccc2c(c1)OCO2` was run?
The max response, negative = inhibition was inactive: -13.4%.

With `COc1cc(C)c(S(=O)(=O)n2nnc3ccccc32)cc1C` as the compound, how does the Potency read?
Its Potency is inconclusive: 4.47 µM [inhibitor, partial curve, poor fit].

Which max response, negative = inhibition does the source give for `Cc1cc(Cl)cc(C)c1OCCOCCNCc1ccccc1` here?
The max response, negative = inhibition was inactive: -2.07%.

For `CCN(CC)C(C)CN1c2ccccc2Sc2ccccc21` (centres undefined), which Potency is on record?
Its Potency is inconclusive: 44.7 µM [inhibitor, partial curve].

`COc1cccc(C(C2C(=O)CC(C)(C)CC2=O)C2C(=O)CC(C)(C)CC2=O)c1` was tested. Which Potency did it give?
The Potency was inconclusive: 50.1 µM [inhibitor, partial curve, poor fit].

With `CCOC(=O)c1c(C)[nH]c(C(=O)/C(C#N)=C/c2ccc(OC(F)F)c(OC)c2)c1C` as the compound, how does the Potency read?
The Potency was inconclusive: 50.1 µM [inhibitor, partial curve, poor fit].

With `COc1ccc(-c2csc(-c3ccc(O)cc3)n2)cc1` as the compound, how does the Potency read?
The Potency was inconclusive: 39.8 µM [inhibitor, single point].

For `Cc1cccn2cc(CCNC(=O)c3ccco3)nc12`, which max response, negative = inhibition is on record?
The max response, negative = inhibition was inactive: -7.88%.

For `CCOc1ccc(NC(=O)C(C)Sc2nnc(C)n2C)cc1` (centres undefined), which Potency is on record?
The Potency was inconclusive: 79.4 µM [inhibitor, partial curve, poor fit].

For `Cc1cc(S(=O)(=O)N(C)CCc2ccccc2)ccc1-n1cnnn1`, which Potency is on record?
Its Potency is inconclusive: 39.8 µM [inhibitor, single point].

`CCOC(=O)C1CCN(C(c2ccccn2)c2c(C)[nH]c3ccccc23)CC1` (centres undefined) was tested. Which Potency did it give?
The Potency was inconclusive: 79.4 µM [inhibitor, partial curve, poor fit].

Which Potency does the source give for `CCOC(=O)c1cc([N+](=O)[O-])c([N+](=O)[O-])cc1NC(C)=O` here?
Its Potency is inconclusive: 50.1 µM [inhibitor, partial curve, poor fit].

`CCOc1ccc(NC(=O)CSC(N)=O)cc1` was tested. Which Potency did it give?
The Potency was inconclusive: 22.4 µM [inhibitor, full curve, poor fit].

`O=C(NCc1ccccc1)c1ccc2c(c1)CCN2S(=O)(=O)c1ccc(Cl)cc1` was tested. Which max response, negative = inhibition did it give?
Its max response, negative = inhibition is inactive: 7.64%.

With `CC(=O)O[C@]1(C(C)=O)CC[C@H]2[C@@H]3C=C(Cl)C4=CC(=O)CC[C@]4(C)[C@H]3CC[C@@]21C` as the compound, how does the Potency read?
Its Potency is inconclusive: 39.8 µM [inhibitor, partial curve].

`Cc1nn(-c2ccccc2)c(Cl)c1/C=N/NC(N)=O` was tested. Which max response, negative = inhibition did it give?
Its max response, negative = inhibition is inactive: -8.5%.

For `CN(C)c1cccc(C(=O)Nc2cccc(F)c2)c1`, which Potency is on record?
Its Potency is inconclusive: 31.6 µM [inhibitor, full curve, poor fit].

For `COc1ccc(N2CCN(Cc3nc4ccccc4c(=O)[nH]3)CC2)cc1`, which Potency is on record?
Its Potency is inconclusive: 2 µM [inhibitor, partial curve, poor fit].

Which Potency does the source give for `N#Cc1ccccc1COC(=O)c1cccnc1N` here?
The Potency was inconclusive: 50.1 µM [inhibitor, partial curve].

How did the max response, negative = inhibition turn out when `Cc1ccc(NC(=O)Cn2nc(-c3ccccc3Cl)ccc2=O)c(Br)c1` was run?
The max response, negative = inhibition was inactive: -0.61%.

`CN(CC(=O)Nc1cccc(F)c1)C(=O)c1cccnc1Sc1ccccc1` was tested. Which max response, negative = inhibition did it give?
Its max response, negative = inhibition is inactive: -12.7%.

For `COCCCNC(=O)c1ccc2c3c(onc13)-c1ccccc1C2=O`, which Potency is on record?
Its Potency is active: 35.5 µM.

Which Potency does the source give for `CCOc1ccc(N2C(=O)c3[nH]nc(-c4ccc(OC)cc4)c3C2c2cccs2)cc1` (centres undefined) here?
Its Potency is inconclusive: 10 µM [inhibitor, partial curve, poor fit].

`Cc1nc(-c2ccccc2)sc1C(=O)/C=C/c1ccccc1` was tested. Which Potency did it give?
The Potency was active: 79.4 µM.

With `CCCc1[nH]nc2c1C1(CCN(C(=O)OCc3ccccc3)CC1)C(C#N)=C(N)O2` as the compound, how does the max response, negative = inhibition read?
The max response, negative = inhibition was inactive: 8.3%.

`COc1ccc2c(c1)CC/C(=C\c1ccc(OC)c(Cn3cccn3)c1)C2=O` was tested. Which max response, negative = inhibition did it give?
Its max response, negative = inhibition is inactive: -6.01%.

`Cc1noc2ncnc(Sc3ccc(Br)cc3)c12` was tested. Which Potency did it give?
The Potency was inconclusive: 35.5 µM [inhibitor, partial curve].

`CC(CCc1ccccc1)NC(=O)c1ccc2nc(N3CCOCC3)sc2c1` (centres undefined) was tested. Which Potency did it give?
The Potency was inconclusive: 79.4 µM [inhibitor, single point].

For `c1ccc(-c2nnc(-c3ccccn3)nn2)nc1`, which max response, negative = inhibition is on record?
The max response, negative = inhibition was inactive: -12.2%.

For `CSCCOC(=O)C1=C(C)Nc2ccc(C)cc2S1`, which Potency is on record?
Its Potency is inconclusive: 89.1 µM [inhibitor, partial curve].

`CCOC(=O)c1ccc(S(=O)(=O)Nc2cc(C(=O)O)ccc2Cl)cc1` was tested. Which Potency did it give?
The Potency was inconclusive: 89.1 µM [inhibitor, single point].

How did the Potency turn out when `CC1=C(C)C(=O)C(C(CCCCCC(=O)O)c2ccccc2)=C(C)C1=O` (centres undefined) was run?
Its Potency is inconclusive: 44.7 µM [inhibitor, partial curve].

Which Potency does the source give for `O=C(O)COc1cccc2c1CCC=C2CCO/N=C(\c1ccccc1)c1cccnc1` here?
The Potency was active: 50.1 µM.

With `O=C(CCCN1C(=O)/C(=C\c2ccccc2)SC1=S)N1CCOCC1` as the compound, how does the Potency read?
The Potency was inconclusive: 70.8 µM [inhibitor, single point].

How did the Potency turn out when `Nc1nc2c(s1)CCc1c-2cnn1-c1ccccc1` was run?
The Potency was active: 20 µM.

How did the Potency turn out when `O=C(O)Cn1nc(-c2ccc(F)cc2)oc1=O` was run?
The Potency was inconclusive: 50.1 µM [inhibitor, partial curve, poor fit].

With `CS(=O)(=O)c1ccc(C(=O)OCC(=O)N2CC(=O)Nc3ccccc32)cc1[N+](=O)[O-]` as the compound, how does the Potency read?
The Potency was inconclusive: 50.1 µM [inhibitor, partial curve, poor fit].

`O=C(NC(=S)Nc1nc(-c2ccc(Cl)cc2)cs1)c1cccs1` was tested. Which Potency did it give?
Its Potency is inconclusive: 39.8 µM [inhibitor, single point].

With `CCCCCCCC1=CC2=C(Cl)C(=O)C(C)(OC(C)=O)C(=O)C2=CN1C` (centres undefined) as the compound, how does the Potency read?
Its Potency is active: 70.8 µM.

With `CCOC(=O)N1CCc2c(sc3c2c(=O)n(Cc2ccccc2)c(=O)n3Cc2cccc(C)c2)C1` as the compound, how does the Potency read?
The Potency was inconclusive: 89.1 µM [inhibitor, single point].

Which max response, negative = inhibition does the source give for `CCn1c(=O)cc(OCC(=O)NCc2ccccc2OC)c2ccccc21` here?
The max response, negative = inhibition was inactive: -11.8%.

How did the Potency turn out when `Cc1sc(NC(=O)CCS(=O)(=O)c2ccccc2)c(C#N)c1C` was run?
Its Potency is active: 89.1 µM.
